Measurements from article PMC6562432.
Results are given in words; binding and its absence hold for the method and conditions named. Binding seen in cells or lysates may run through a third protein. Some entries that bind do so weakly or less than the wild type.

Amino acid sequences for entries named in this document (tags omitted).
UniProt P23804: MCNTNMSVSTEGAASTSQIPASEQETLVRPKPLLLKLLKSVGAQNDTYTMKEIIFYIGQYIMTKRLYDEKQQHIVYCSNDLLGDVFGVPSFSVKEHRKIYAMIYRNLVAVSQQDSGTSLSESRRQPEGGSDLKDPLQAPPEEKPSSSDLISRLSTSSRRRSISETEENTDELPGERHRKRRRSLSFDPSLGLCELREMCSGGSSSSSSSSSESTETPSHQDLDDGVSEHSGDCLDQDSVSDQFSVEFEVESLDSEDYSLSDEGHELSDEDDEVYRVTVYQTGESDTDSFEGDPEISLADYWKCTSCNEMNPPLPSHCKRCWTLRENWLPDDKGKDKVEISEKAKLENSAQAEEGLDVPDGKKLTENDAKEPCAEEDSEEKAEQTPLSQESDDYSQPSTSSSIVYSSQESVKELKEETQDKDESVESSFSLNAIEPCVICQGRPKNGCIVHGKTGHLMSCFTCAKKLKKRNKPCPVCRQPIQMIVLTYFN

Molecular target: T1, cyclin-dependent kinase inhibitor 1A/p21 (p21) (mouse (endogenous in LS8)) (UniProt P39689)
T1 sequence: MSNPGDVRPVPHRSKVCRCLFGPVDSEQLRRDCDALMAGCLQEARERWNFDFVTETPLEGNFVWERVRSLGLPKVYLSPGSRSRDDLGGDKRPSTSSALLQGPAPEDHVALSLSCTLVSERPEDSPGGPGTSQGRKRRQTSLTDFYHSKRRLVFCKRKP
Test: co-IP; Pierce Co-immunoprecipitation Kit; 1 mg LS8 lysate protein precipitated with mouse anti-p21, blotted with rabbit anti-MDM2; cells treated with Nutlin-3a (5 uM) for 2 h, then NaF (5 mM) for 6 h; mouse IgG as negative control

binding: binds
Substance: murine double minute 2 protein (MDM2) (from UniProt P23804 1-489)
